# In all, about 300,000 compounds went through this assay and about 3,700 (1.2%) were called active. Inconclusive results, whose numbers are uncertain, are shown with a selection of clear calls. Calls come from the whole dose curve; tested in HEK293 cells. A potency beside an inconclusive call is a rough fit, not a confirmed value.
# Test: qHTS for Inhibitors of binding or entry into cells for Lassa Virus; note: nearly all actives have a fitted effect of over 50% in size
# Details: Lassa virus pseudotype entry inhibition, cell reporter; activity change, negative = inhibition: at 37.9 µM (top of the series) unless noted
# % is set by controls: 0 for no effect and ±100 for the full control effect; potency is the fitted concentration of half-maximal effect.
Compound,Potency,"activity change, negative = inhibition"
O=C(NCCSc1ccccc1)c1cccnc1,inactive,–
Cc1ccccc1OCc1nc2ccccc2c(=O)n1NC(=O)c1ccco1,inactive,–
COc1cc(SC)ccc1C(=O)NCCc1ccccc1,"inconclusive: 11.6 µM [inhibitor, partial curve, poor fit]",–
Cc1nn2c(C)c(C(=O)NC(C)(C)C)cnc2c1-c1ccc(F)cc1,inactive,–
CC(C)Oc1cccc(C(=O)C2CCCN(Cc3ccc4nonc4c3)C2)c1 (stereo not given),"inconclusive: 35.5 µM [inhibitor, single point]",–
COc1cc2[nH]c(=O)n(CCC(=O)N3CCN(c4cccc(C)c4C)CC3)c(=O)c2cc1OC,"inconclusive: 23.1 µM [inhibitor, partial curve, poor fit]",–
N/C(CCS(=O)(=O)c1ccc(Cl)cc1)=N\OC(=O)c1ccccc1Cl,inactive,–
COc1ccc(C2NC(c3ccc(OC)cc3)C(c3ccccc3)C(=O)C2c2ccccc2)cc1 (stereo not given),"inconclusive: 9.2 µM [inhibitor, partial curve]",–
COc1ccc(C(CNC(=O)CN2C(=O)NC3(CCCC3)C2=O)N(C)C)cc1 (stereo not given),"inconclusive: 35.5 µM [activator, single point]",–
O=C(CSc1nc(=O)[nH]c2c1CCCC2)NCc1ccccc1,inactive,–
Cc1nc([N+](=O)[O-])c(Sc2nc3ccccc3[nH]2)n1Cc1ccccc1,"inconclusive: 35.5 µM [inhibitor, single point]",–
CSc1cccc(NC(=S)N2CCCN(Cc3cccc(Cl)c3)C2)c1,"inconclusive: 20 µM [inhibitor, partial curve, poor fit]",–
COc1ccc(NC(=O)CN2C(=O)NC3(CCCCCC3)C2=O)cc1Cl,"inconclusive: 20 µM [inhibitor, partial curve, poor fit]",–
CC1CC(C)CN(C(=O)COC(=O)CCc2nc3ccccc3c(=O)[nH]2)C1 (stereo not given),"inconclusive: 5.62 µM [activator, single point]",–
CCCc1cc(=O)[nH]c(SCC(=O)Nc2cccc3ccccc23)n1,"inconclusive: 6.31 µM [inhibitor, single point]",–
COc1ccc(NC(=S)N2CCC(Cc3ccccc3)CC2)cc1OC,"inconclusive: 10 µM [inhibitor, partial curve, poor fit]",–
Cc1ccc(Nc2ncnc3onc(C)c23)cc1Cl,"inconclusive: 35.5 µM [activator, single point]",–
CC(=O)N1N=C2c3ccccc3CCC2C1c1ccc(F)cc1 (stereo not given),"inconclusive: 20 µM [inhibitor, partial curve, poor fit]",–
COc1cc(Br)c(CN2C(=O)NC3(CCCCCC3)C2=O)cc1OC,"inconclusive: 6.31 µM [activator, single point]",–
CN(CCO)c1nc2c(c(=O)n(Cc3ccc(Cl)cc3)c(=O)n2C)n1C,"inconclusive: 1 µM [activator, partial curve, poor fit]",–
COc1ccc(/C=N\NC(=O)c2nn(C)cc2Cl)cc1CN1CCOCC1,inactive,–
CC(=O)Oc1ccc(C(=O)Nc2cccc(-c3nnc(-c4ccco4)o3)c2)cc1,"inconclusive: 35.5 µM [inhibitor, partial curve, poor fit]",–

Compound,Potency,"activity change, negative = inhibition"
COc1ccc(/C(C)=N/Nc2nc3ccccc3nc2C)cc1,"inconclusive: 39.8 µM [inhibitor, partial curve, poor fit]",–
CCCc1nc2cc3c(cc2[nH]1)n(C)c(=O)n3C,"inconclusive: 20 µM [activator, single point]",–
COc1ccc(OCCNC(=O)c2cccc(Oc3ccc(C(F)(F)F)cc3[N+](=O)[O-])c2)cc1,inactive,–
O=C(Cc1ccc(Br)cc1)c1ccc(O)cc1O,"inconclusive: 10 µM [activator, partial curve, poor fit]",–
COc1ccc(CCNC(=O)Cn2c(=O)cnc3ccccc32)cc1,"inconclusive: 14.1 µM [inhibitor, single point]",–
COc1cccc(C(=O)Nc2nc3nc(C)c(C)c(=O)n3[nH]2)c1,"inconclusive: 1.58 µM [activator, full curve, poor fit]",–
N#CCCN(C(=O)COC(=O)c1cccc(S(=O)(=O)N2CCCCCC2)c1)c1ccc(F)cc1,"inconclusive: 25.1 µM [inhibitor, single point]",–
CCCCN1C[C@H](c2ccccc2)[C@@H](CC(=O)NC)C1=O,"inconclusive: 3.15 µM [inhibitor, full curve, poor fit]",–
COc1cc(/C=N/NC(=O)c2cccc(S(=O)(=O)N3CCCC3)c2)cc(OC)c1O,"inconclusive: 5.01 µM [activator, single point]",–
COc1ccc(C(=O)Nc2ccc(Cl)c(S(=O)(=O)N3CCOCC3)c2)cc1,"inconclusive: 11.2 µM [inhibitor, partial curve, poor fit]",–
O=C(CNC(=O)C1COc2ccccc2O1)N/N=C/c1ccc(O)cc1O (stereo not given),"inconclusive: 11.2 µM [inhibitor, partial curve, poor fit]",–
COc1cccc(NC(=O)CSc2nc(=O)n(Cc3ccncc3)c3c2CCCC3)c1,inactive,–
O=C(Nc1ccc([N+](=O)[O-])cc1)Nc1nc(-c2ccc(Cl)s2)cs1,"inconclusive: 7.94 µM [inhibitor, partial curve]",–
Cc1ccc(C(=O)N2CCN(c3ccc(F)cc3)CC2)cc1NC(=O)c1nsc2ccccc12,inactive,–
Cc1ccccc1OCCC(=O)OCC(=O)c1c(N)n(CC(C)C)c(=O)n(C)c1=O,"inconclusive: 11.2 µM [inhibitor, partial curve, poor fit]",–
COc1ccc(CCNC(=O)NC23CC4CC(CC(C4)C2)C3)cc1OC,"inconclusive: 17.8 µM [inhibitor, single point]",–
C/C=C/c1ccc(OCCCCN2CC(C)CC(C)C2)c(OC)c1 (stereo not given),"inconclusive: 35.5 µM [inhibitor, single point]",–
Cc1ccc(-c2nnc(Nc3ccc(Cl)c(Cl)c3)c3ccccc23)cc1S(=O)(=O)N(C)C,"inconclusive: 4.47 µM [inhibitor, full curve]",–
CC(=N\NC(=O)c1ccccc1)/C(=N/O)C(=O)Nc1ccccc1,inactive,–
Cc1ccc(O)c(/C=N/NC(=O)COc2ccc3c(C)cc(=O)oc3c2)c1,"inconclusive: 7.08 µM [inhibitor, partial curve, poor fit]",–
COc1ccc(CCNS(=O)(=O)c2ccc(F)c(C(=O)Nc3ccc(Cl)cc3)c2)cc1OC,"inconclusive: 8.91 µM [inhibitor, partial curve, poor fit]",–
O=C(c1ccoc1)N1CCCC(Nc2ccc(F)c(F)c2)C1 (stereo not given),inactive,–

Compound,Potency,"activity change, negative = inhibition"
COc1ccc(OC)c(NC(=O)c2sc3nc(Cc4ccccc4)cc(C(F)(F)F)c3c2N)c1,inactive,–
COc1ccc(C2NC(=O)NC(C)=C2C(=O)OCc2ccc3c(c2)OCO3)cc1OC (stereo not given),inactive,–
Cc1cccc(CNC(=O)CN2C(=O)C3CCCCN3c3ccc(C(=O)N4CCCC4)cc32)c1 (stereo not given),inactive,–
CCOC(=O)c1c(C)oc2c1c(C=NCCC(=O)O)c(O)c1ccccc12,"inconclusive: 35.5 µM [inhibitor, single point]",–
O=C(c1cc2sccc2n1Cc1ccccc1)N1CCN(c2nc3ccccc3s2)CC1,"inconclusive: 1.58 µM [inhibitor, full curve]",–
CCOC(=O)c1c(C)[nH]c(C)c1S(=O)(=O)N1CCCC(C(=O)Nc2ccc(C)c(N(C)C)c2)C1 (stereo not given),inactive,–
CC(=O)N1CCN(S(=O)(=O)c2ccc(Cl)cc2F)CC1,"inconclusive: 0.891 µM [inhibitor, partial curve, poor fit]",–
CC1CCCCN1CC(O)COCCC12CC3CC(CC(C3)C1)C2 (stereo not given),"inconclusive: 12.6 µM [inhibitor, single point]",–
CCCCOC(=O)c1ccc(NC(=O)Cc2coc3c(C)c(C)ccc23)cc1,inactive,–
O=C(CCSCc1ccc(Cl)cc1)NCc1cccnc1,"inconclusive: 5.62 µM [inhibitor, full curve]",–
c1cc(Nc2cccc3nccnc23)c2nccnc2c1,"inconclusive: 10 µM [inhibitor, partial curve, poor fit]",–
Cc1cc(C)c2c(N)c(S(=O)(=O)c3ccccc3)sc2n1,"inconclusive: 16.4 µM [inhibitor, single point]",–
Cc1ccc(S(=O)(=O)CCC(=O)Nc2sccc2C(N)=O)cc1,inactive,–
COC(=O)c1ccc2c(c1)NC1=C(C(=O)CC(C)(C)C1)C(c1ccncc1)N2 (stereo not given),inactive,–
Cc1ccc(NC(=O)CN2C(=O)CN=C(c3ccccc3)c3ccccc32)cc1Cl,"inconclusive: 35.5 µM [inhibitor, single point]",–
O=C(Cc1c(F)cccc1Cl)Nc1cccc(S(=O)(=O)NC2=NCCCCC2)c1,"inconclusive: 0.398 µM [inhibitor, partial curve, poor fit]",–
CC1=C(C(=O)OCc2ccc3c(c2)OCO3)C(c2ccccc2)NC(=O)N1 (stereo not given),"inconclusive: 18.3 µM [inhibitor, partial curve, poor fit]",–
CCN(CC)c1ccc(NC(=O)CN2CCN(CC(=O)Nc3ccccc3F)CC2)cc1,inactive,–
Cc1cn(S(=O)(=O)c2ccccc2[N+](=O)[O-])cn1,–,inconclusive: 1.38% [activator]
Cc1ccccc1NS(=O)(=O)c1ccc(OCC(=O)NCC2CCCO2)cc1 (stereo not given),"inconclusive: 6.31 µM [inhibitor, single point]",–
CC(C)CON=C1C[C@@H](O)[C@@H](O)[C@@H]2[C@H]3C(=O)N([C@@H](C)c4ccccc4)C(=O)[C@@H]3CC[C@H]12,inconclusive: 0.0008 µM [inhibitor],–

# 6 successive compounds from above, for reference:
Compound,Potency,"activity change, negative = inhibition"
O=C(Nc1ccc([N+](=O)[O-])cc1)Nc1nc(-c2ccc(Cl)s2)cs1,"inconclusive: 7.94 µM [inhibitor, partial curve]",–
Cc1ccc(C(=O)N2CCN(c3ccc(F)cc3)CC2)cc1NC(=O)c1nsc2ccccc12,inactive,–
Cc1ccccc1OCCC(=O)OCC(=O)c1c(N)n(CC(C)C)c(=O)n(C)c1=O,"inconclusive: 11.2 µM [inhibitor, partial curve, poor fit]",–
COc1ccc(CCNC(=O)NC23CC4CC(CC(C4)C2)C3)cc1OC,"inconclusive: 17.8 µM [inhibitor, single point]",–
C/C=C/c1ccc(OCCCCN2CC(C)CC(C)C2)c(OC)c1 (stereo not given),"inconclusive: 35.5 µM [inhibitor, single point]",–
Cc1ccc(-c2nnc(Nc3ccc(Cl)c(Cl)c3)c3ccccc23)cc1S(=O)(=O)N(C)C,"inconclusive: 4.47 µM [inhibitor, full curve]",–
